Test results published in PubChem BioAssay AID248 (DTP/NCI, 2004).
The list is a part of this screen's results and no random one: it is rich in T/C values a quarter to a half above the control, in often repeated tests (any T/C) and in doses without a T/C. Further doses and runs are listed elsewhere. T/C: endpoint of the treated group in % of that of the vehicle group. Some doses have a count of surviving animals in place of a T/C: the source holds a T/C of zero for them, seemingly a mark for toxic or unscored doses. Some doses without a T/C left all or most animals alive at the check, yet need not have been tolerated: survival well below the control is almost never listed, so the zero probably covers shortened survival too. Counts of survivors are from the toxicity check (mostly the fifth day) where no day follows; animals may have died later. Schedule codes are those of the source, taken here to give the interval after Q, in days (D) or hours (H), and the number of doses after X. Some doses were run more than once; the results are listed from low to high. Some schedules carry Z or #; the key to these is not given. For survival time, the PubChem record calls one and a half times the control and up active, and a quarter to a half above the control has no call in these data; cut-offs in other NCI protocols can differ. Some T/C values are followed by the survivors on the day toxicity was checked, most often the fifth; without a count, all were alive then.

System: L1210 leukemia ip in BDF1 mice, survival T/C
Assay: NCI In Vivo Anticancer Drug Screen. Data for tumor model L1210 Leukemia (intraperitoneal) in B6D2F1 (BDF1) mice
Details: T/C endpoint: mean survival time, higher T/C = longer survival
[1] = dose: 300.0 mg/kg/injection, schedule: Q01DX001 (ip), vehicle: saline
[2] = dose: 200.0 mg/kg/injection, schedule: Q01DX009 (ip), vehicle: Klucel (hydroxypropylcellulose) (HPC)

In the case of `C1OC2CC3CC1C2C3` (configuration not stated), the survivor count (dose: 75.0 mg/kg/injection, schedule: Q01DX001 (ip), vehicle: acetone) is reported as 2 of 6, the survivor count (dose: 150.0 mg/kg/injection, schedule: Q01DX001 (ip), vehicle: acetone) is reported as 0 of 6 and the survivor count (dose: 300.0 mg/kg/injection, schedule: Q01DX001 (ip), vehicle: acetone) is reported as 0 of 6.

With `O=C(Nc1ccc(C2=NCCCN2)cc1)c1ccc(NC(=O)c2ccc(C3=NCCCN3)cc2)cc1` the T/C (dose: 1.0 mg/kg/injection, schedule: Q01DX Z (ip), vehicle: carboxymethylcellulose (CMC)) was 127 % of control, the T/C (dose: 1.88 mg/kg/injection, schedule: Q01DX Z (ip), vehicle: saline) was 143 % of control and the T/C (dose: 2.0 mg/kg/injection, schedule: Q01DX010 (ip), vehicle: other) was 145 % of control. For the same compound, the T/C (dose: 2.0 mg/kg/injection, schedule: Q01DX Z (sc), vehicle: saline) was 141 % of control, the T/C (dose: 10.0 mg/kg/injection, schedule: Q01DX001 (im), vehicle: steroid suspending solution) was 135 % of control and the T/C (dose: 14.0 mg/kg/injection, schedule: Q01DX001 (ip), vehicle: carboxymethylcellulose (CMC)) was 141 % of control. For the same compound, the T/C (dose: 14.0 mg/kg/injection, schedule: Q01DX001 (ip), vehicle: saline) was 134 and 135 % of control, the survivor count (dose: 15.0 mg/kg/injection, schedule: Q01DX Z (ip), vehicle: other) was 3 of 6 and the survivor count (dose: 20.0 mg/kg/injection, schedule: Q01DX010 (sc), vehicle: olive oil, sesame oil, peanut oil) was 5 of 6. The T/C (dose: 21.0 mg/kg/injection, schedule: Q01DX001 (ip), vehicle: other) was 149 % of control, the survivor count (dose: 30.0 mg/kg/injection, schedule: Q01DX Z (ip), vehicle: other) was 0 of 6 and the T/C (dose: 32.0 mg/kg/injection, schedule: Q01DX001 (ip), vehicle: saline) was 146 % of control. For the same compound, the survivor count (dose: 32.0 mg/kg/injection, schedule: Q01DX010 (ip), vehicle: other) was 0 of 6, the survivor count (dose: 32.0 mg/kg/injection, schedule: Q01DX Z (sc), vehicle: carboxymethylcellulose (CMC)) was 6 of 6 and the survivor count (dose: 40.0 mg/kg/injection, schedule: Q01DX010 (sc), vehicle: olive oil, sesame oil, peanut oil) was 5 of 10 and 5 of 6. For the same compound, the survivor count (dose: 40.0 mg/kg/injection, schedule: Q01DX010 (sc), vehicle: saline) was 5 of 6, the survivor count (dose: 48.0 mg/kg/injection, schedule: Q01DX001 (ip), vehicle: other) was 5 of 10 and the survivor count (dose: 60.0 mg/kg/injection, schedule: Q01DX Z (ip), vehicle: other) was 0 of 6. The survivor count (dose: 64.0 mg/kg/injection, schedule: Q01DX Z (sc), vehicle: carboxymethylcellulose (CMC)) was 1 of 6, the survivor count (dose: 72.0 mg/kg/injection, schedule: Q01DX001 (ip), vehicle: carboxymethylcellulose (CMC)) was 1 of 10 and the survivor count (dose: 72.0 mg/kg/injection, schedule: Q01DX001 (ip), vehicle: other) was 1 of 10. The survivor count (dose: 80.0 mg/kg/injection, schedule: Q01DX001 (im), vehicle: steroid suspending solution) was 3 of 6, the survivor count (dose: 80.0 mg/kg/injection, schedule: Q01DX010 (sc), vehicle: olive oil, sesame oil, peanut oil) was 1 of 6 and 6 of 6 and the survivor count (dose: 80.0 mg/kg/injection, schedule: Q01DX010 (sc), vehicle: saline) was 4 of 6. For the same compound, the survivor count (dose: 80.0 mg/kg/injection, schedule: Q02DX004 (im), vehicle: olive oil, sesame oil, peanut oil) was 6 of 6, the survivor count (dose: 120.0 mg/kg/injection, schedule: Q01DX Z (ip), vehicle: other) was 0 of 6 and the survivor count (dose: 128.0 mg/kg/injection, schedule: Q01DX Z (sc), vehicle: carboxymethylcellulose (CMC)) was 0 of 6. The T/C (dose: 300.0 mg/kg/injection, schedule: Q#A X Z (oral), vehicle: carboxymethylcellulose (CMC)) was 137 % of control, the T/C (dose: 303.5 mg/kg/injection, schedule: Q#A X Z (oral), vehicle: carboxymethylcellulose (CMC)) was 127 % of control and the T/C (dose: 450.0 mg/kg/injection, schedule: Q#A X Z (oral), vehicle: carboxymethylcellulose (CMC)) was 126 % of control. For the same compound, the T/C (dose: 500.0 mg/kg/injection, schedule: Q01DX Z (oral), vehicle: carboxymethylcellulose (CMC)) was 136 % of control, the T/C (dose: 600.0 mg/kg/injection, schedule: Q01DX Z (oral), vehicle: water) was 131 % of control and the survivor count (dose: 607.0 mg/kg/injection, schedule: Q01DX Z (oral), vehicle: carboxymethylcellulose (CMC)) was 3 of 5. The T/C (dose: 900.0 mg/kg/injection, schedule: Q01DX Z (oral), vehicle: water) was 136 % of control, the T/C (dose: 1800.0 mg/kg/injection, schedule: Q03DX Z (oral), vehicle: carboxymethylcellulose (CMC)) was 140 % of control and the T/C (dose: 4000.0 mg/kg/injection, schedule: Q07DX Z (oral), vehicle: carboxymethylcellulose (CMC)) was 130 % of control [5 of 6 alive].

In the case of `CCN(CC)CCCNC(c1ccc(OC)c(OC)c1)C(Cl)(Cl)Cl` (configuration not stated), the survivor count [1] is reported as 1 of 6.

With `c1ccc(N=Nc2ccncc2)cc1` the survivor count (dose: 100.0 mg/kg/injection, schedule: Q04DX003 (ip), vehicle: saline with Tween-80) was 0 of 6, the survivor count (dose: 200.0 mg/kg/injection, schedule: Q04DX003 (ip), vehicle: saline with Tween-80) was 0 of 6 and the survivor count (dose: 400.0 mg/kg/injection, schedule: Q04DX003 (ip), vehicle: saline with Tween-80) was 0 of 6.

For `NC(=S)Nc1cccc(Cl)c1`, the survivor count (dose: 50.0 mg/kg/injection, schedule: Q01DX009 (ip), vehicle: other) was 3 of 6, the survivor count (dose: 100.0 mg/kg/injection, schedule: Q01DX009 (ip), vehicle: other) was 0 of 6 and the survivor count (dose: 100.0 mg/kg/injection, schedule: Q04DX003 (ip), vehicle: Klucel (hydroxypropylcellulose) (HPC)) was 6 of 6. The survivor count (dose: 200.0 mg/kg/injection, schedule: Q01DX009 (ip), vehicle: other) was 0 of 6, the survivor count (dose: 200.0 mg/kg/injection, schedule: Q04DX003 (ip), vehicle: Klucel (hydroxypropylcellulose) (HPC)) was 2 of 6 and the survivor count (dose: 400.0 mg/kg/injection, schedule: Q04DX003 (ip), vehicle: Klucel (hydroxypropylcellulose) (HPC)) was 0 of 6.

In the case of `CC1CC(C)OS(=O)O1` (configuration not stated), the survivor count (dose: 150.0 mg/kg/injection, schedule: Q01DX Z (ip), vehicle: saline) is reported as 6 of 6.

In the case of `COc1cccc(/C=C/c2cnc3ccccc3n2)c1OC`, the survivor count [2] is reported as 6 of 6.

With `CCN(CC)CCSC(=O)C(O)(c1ccccc1)c1ccccc1` the survivor count (dose: 150.0 mg/kg/injection, schedule: Q01DX001 (ip), vehicle: saline) was 3 of 6 and the survivor count [1] was 0 of 6.

`COc1ccccc1NC(=O)Nc1ccc(S(N)(=O)=O)cc1` was tested, and the survivor count (dose: 200.0 mg/kg/injection, schedule: Q04DX002 (ip), vehicle: saline with Tween-80) was 3 of 3.

`CN(Cc1ccc(Cl)cc1)C(=O)Nc1cccc(C(F)(F)F)c1` was tested, and the survivor count [2] was 6 of 6.

For `CCCN(CCC)N=Nc1c(C(=O)OC)n[nH]c1C`, the T/C (dose: 265.0 mg/kg/injection, schedule: Q01DX009 (ip), vehicle: saline) was 131 % of control and the survivor count (dose: 600.0 mg/kg/injection, schedule: Q01DX009 (ip), vehicle: saline) was 3 of 6.
